# Measurements reported in PubChem BioAssay AID1053208 (Peter MacCallum Cancer Centre, 2014).
# Screen: 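Find knock-downs that sensitise mouse osteosarcoma cells to doxorubicin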 (primary screen)
# Cells: mouse osteosarcoma cells, early-passage culture from an engineered mouse model of fibroblastic bone tumour
# Reagents: siRNA pool against mouse genes, 40 nM
# Timing: about 120 h (48 h before drug, then 72 h with drug)
# Treatment: doxorubicin 100 nM for 72 h, roughly 30-40% inhibitory dose
# Measured: 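Luminescent ATP signal taken as viability with or without 100 nM doxorubicin for 72 h; mean of two wells set against non-targeting siRNA and turned into robust z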
# Reading the numbers: viability z-score with doxorubicin: higher = more viable cells under doxorubicin; viability z-score without drug: higher = more viable cells with knock-down alone
# Active means: 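a pool counts as active when its viability z-score with doxorubicin is -2 or below and its z-score without drug lies between -2 and 2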
# Shown is a random part of about 17,000 deposited reagents. Over the whole deposit, 788 (4.7%) got an active call. 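Calls rest on z-score classes alone; an extra cut-off of viability at most 70% of control was not applied to them.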 Further read-outs or replicates are left out here.
gene,combined z-score class,viability z-score with doxorubicin,viability z-score without drug,Call
Or5b120,no change with or without drug,1.35,0.17,inactive
Ttc7,low cell count with doxorubicin only,-2.25,-1.18,active
4930550C14Rik,no change with or without drug,-0.56,-1.18,inactive
Irak3,no change with or without drug,0.22,-0.51,inactive
Or1o2,no change with or without drug,-1.91,-0.51,inactive
Matk,no change with or without drug,-1.8,-1.52,inactive
Mpst,no change with or without drug,1.12,-0.17,inactive
Derl3,high cell count without drug only,0.34,2.19,inactive
Urod,no change with or without drug,-0.45,-0.17,inactive
Ptpro,no change with or without drug,-1.12,-0.34,inactive
Tctn3,no change with or without drug,-1.01,1.52,inactive
Gnaz,high cell count without drug only,0.22,2.02,inactive
Snx4,no change with or without drug,-0.9,-1.18,inactive
Cep20,no change with or without drug,0.11,0.17,inactive
B3galt4,no change with or without drug,-1.57,0.34,inactive
Sqstm1,high cell count with doxorubicin only,2.81,1.35,inactive
Fitm2,no change with or without drug,-0.67,-0.51,inactive
Ugt1a6a,no change with or without drug,-1.12,-0.84,inactive
Cyp11a1,no change with or without drug,0.11,-0.84,inactive
Aup1,no change with or without drug,0,1.18,inactive
Bcl7b,no change with or without drug,0.22,0.51,inactive
Timmdc1,no change with or without drug,0.9,1.85,inactive
B230325K18Rik,no change with or without drug,-0.22,-0.84,inactive
Nfkb2,no change with or without drug,-0.45,-0.84,inactive
Rhbg,no change with or without drug,0.67,0,inactive
Pak1ip1,no change with or without drug,-0.9,-1.18,inactive
Or10ak13,no change with or without drug,0.45,-0.34,inactive
Tm9sf1,no change with or without drug,-0.67,-0.84,inactive
Grem2,no change with or without drug,0.45,0.51,inactive
H2ac6,no change with or without drug,0.56,0.67,inactive
Tusc3,no change with or without drug,0.45,-0.51,inactive
Or2y1d,no change with or without drug,-1.69,-1.85,inactive
Cxxc1,no change with or without drug,0.9,-0.17,inactive
Ppat,no change with or without drug,0.45,-0.34,inactive

2 entries from above, reformatted.
gene	combined z-score class	viability z-score with doxorubicin	viability z-score without drug	Call
Irak3	no change with or without drug	0.22	-0.51	inactive
Or1o2	no change with or without drug	-1.91	-0.51	inactive
